The values that follow are results of earlier work, collected in patent US20160151380A1, “THERAPIES FOR DISEASES CAUSED BY ARTHROPOD-BORNE PARASITES” (THE REGENTS OF THE UNIVERSITY OF CALIFORNIA, priority 2013, published 2016).

Chains of the proteins cited; added tags and fusions are not shown.
UniProt P45983, whole entry: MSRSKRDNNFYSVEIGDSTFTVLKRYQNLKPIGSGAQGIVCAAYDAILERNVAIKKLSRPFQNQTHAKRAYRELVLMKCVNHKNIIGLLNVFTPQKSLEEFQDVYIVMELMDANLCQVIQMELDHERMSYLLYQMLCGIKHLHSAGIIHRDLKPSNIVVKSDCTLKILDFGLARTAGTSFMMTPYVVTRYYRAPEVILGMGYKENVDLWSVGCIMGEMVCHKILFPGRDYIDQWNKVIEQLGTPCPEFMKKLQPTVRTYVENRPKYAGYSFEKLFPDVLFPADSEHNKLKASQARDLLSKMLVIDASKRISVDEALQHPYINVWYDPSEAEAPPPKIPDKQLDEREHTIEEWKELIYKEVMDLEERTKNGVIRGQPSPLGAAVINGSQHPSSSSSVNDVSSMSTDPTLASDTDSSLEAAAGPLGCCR
UniProt Q02156, whole entry: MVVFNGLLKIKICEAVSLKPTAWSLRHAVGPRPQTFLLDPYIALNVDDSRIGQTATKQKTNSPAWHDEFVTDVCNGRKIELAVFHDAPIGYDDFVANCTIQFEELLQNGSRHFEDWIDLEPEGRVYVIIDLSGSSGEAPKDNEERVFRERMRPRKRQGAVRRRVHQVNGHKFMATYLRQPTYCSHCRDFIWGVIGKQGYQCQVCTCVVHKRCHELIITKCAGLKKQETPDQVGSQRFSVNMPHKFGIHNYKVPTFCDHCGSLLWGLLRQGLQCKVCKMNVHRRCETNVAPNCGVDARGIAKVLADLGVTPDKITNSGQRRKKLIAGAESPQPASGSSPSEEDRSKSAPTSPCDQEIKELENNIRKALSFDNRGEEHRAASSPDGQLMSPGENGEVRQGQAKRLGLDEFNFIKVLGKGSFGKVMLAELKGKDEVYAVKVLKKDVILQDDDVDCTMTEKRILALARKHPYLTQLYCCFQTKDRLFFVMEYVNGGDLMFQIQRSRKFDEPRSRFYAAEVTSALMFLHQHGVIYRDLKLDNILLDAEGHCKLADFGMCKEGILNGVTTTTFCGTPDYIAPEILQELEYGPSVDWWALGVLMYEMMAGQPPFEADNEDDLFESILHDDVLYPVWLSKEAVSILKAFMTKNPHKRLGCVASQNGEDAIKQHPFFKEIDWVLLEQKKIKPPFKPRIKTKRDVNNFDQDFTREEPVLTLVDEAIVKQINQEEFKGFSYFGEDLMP
UniProt P53779, whole entry: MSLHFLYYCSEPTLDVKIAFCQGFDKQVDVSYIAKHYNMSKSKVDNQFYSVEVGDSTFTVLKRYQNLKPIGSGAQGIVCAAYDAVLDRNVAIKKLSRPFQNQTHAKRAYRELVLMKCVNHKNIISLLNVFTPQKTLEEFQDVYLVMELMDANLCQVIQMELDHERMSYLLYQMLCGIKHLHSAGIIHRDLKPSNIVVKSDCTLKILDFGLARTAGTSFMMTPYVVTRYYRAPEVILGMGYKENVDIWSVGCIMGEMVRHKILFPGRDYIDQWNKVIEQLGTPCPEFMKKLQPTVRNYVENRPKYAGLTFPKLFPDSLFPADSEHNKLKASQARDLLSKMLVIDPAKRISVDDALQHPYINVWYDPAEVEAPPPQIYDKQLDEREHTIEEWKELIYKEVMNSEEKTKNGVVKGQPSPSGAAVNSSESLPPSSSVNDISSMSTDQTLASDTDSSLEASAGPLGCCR

Structures are written as SMILES. The match of structure and compound is tentative.

Among the targets are JNK1 (Homo sapiens, UniProt P45983); PKCepsilon (Homo sapiens, UniProt Q02156); JNK3 (Homo sapiens, UniProt P53779).
Common to all, as to conditions: cited from earlier work

As for `Cc1ccc(C(=O)Nc2cccc(C(C)(C)C)c2)cc1-c1ccc(C(=O)NCC2CC2)cc1`, the Kd at JNK1 was less than 1250 nM.

On to `O=C(N[C@@H]1CNC[C@H]1OC(=O)c1cc(O)c(C(=O)c2c(O)cccc2C(=O)O)c(O)c1)c1ccc(O)cc1`, for which the IC50 on PKCepsilon was 10 nM.

For the molecule `CC(C)NCC(C(=O)N1CCN(c2ncnc3c2[C@H](C)CC3)CC1)c1ccc(Cl)cc1` (stereo partly shown), at JNK3, the Kd is less than 400 nM.

As for `O=C(N[C@@H]1CCC[C@H]1OC(=O)c1cc(O)c(C(=O)c2c(O)cccc2C(=O)O)c(O)c1)c1ccc(O)cc1`, at PKCepsilon, the IC50 was 50 nM.

The term Kd denotes the constant that tells how readily two partners part at equilibrium. As usually defined, the IC50 is the concentration that inhibits the measured activity by half.
